Experimental data taken from the supplement of paper PMC10849652.
This is one part of the list.

Sequences of proteins named here, by UniProt entry; tags and fusion partners are left off. A change or cut given only in a name is not applied to a line headed by its entry.
UniProt Q8WUJ0: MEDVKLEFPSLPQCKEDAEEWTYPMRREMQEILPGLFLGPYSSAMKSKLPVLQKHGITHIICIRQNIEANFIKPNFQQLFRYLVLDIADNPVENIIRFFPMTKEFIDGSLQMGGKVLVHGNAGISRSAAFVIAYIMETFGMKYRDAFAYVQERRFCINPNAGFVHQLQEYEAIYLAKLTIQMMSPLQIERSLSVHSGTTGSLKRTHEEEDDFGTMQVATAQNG
UniProt O75486: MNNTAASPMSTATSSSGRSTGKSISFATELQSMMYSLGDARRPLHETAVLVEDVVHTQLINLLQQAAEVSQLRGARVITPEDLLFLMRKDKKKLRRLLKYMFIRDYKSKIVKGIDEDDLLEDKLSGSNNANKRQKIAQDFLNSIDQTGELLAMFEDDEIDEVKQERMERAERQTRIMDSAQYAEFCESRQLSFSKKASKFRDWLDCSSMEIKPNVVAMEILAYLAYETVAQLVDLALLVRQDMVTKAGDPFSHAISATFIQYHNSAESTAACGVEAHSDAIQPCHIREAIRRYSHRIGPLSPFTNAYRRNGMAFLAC
UniProt Q8NBK3: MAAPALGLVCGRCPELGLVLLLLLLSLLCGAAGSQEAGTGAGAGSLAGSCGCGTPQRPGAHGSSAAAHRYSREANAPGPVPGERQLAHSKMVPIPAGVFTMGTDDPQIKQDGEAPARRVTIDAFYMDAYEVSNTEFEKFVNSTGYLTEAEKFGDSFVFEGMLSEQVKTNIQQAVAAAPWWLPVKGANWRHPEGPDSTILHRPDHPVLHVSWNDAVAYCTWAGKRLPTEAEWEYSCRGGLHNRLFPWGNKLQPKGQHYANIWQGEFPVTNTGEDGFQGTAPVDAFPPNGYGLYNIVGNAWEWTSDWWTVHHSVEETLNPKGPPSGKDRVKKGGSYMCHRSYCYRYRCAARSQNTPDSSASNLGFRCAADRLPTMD
UniProt Q9UJZ1: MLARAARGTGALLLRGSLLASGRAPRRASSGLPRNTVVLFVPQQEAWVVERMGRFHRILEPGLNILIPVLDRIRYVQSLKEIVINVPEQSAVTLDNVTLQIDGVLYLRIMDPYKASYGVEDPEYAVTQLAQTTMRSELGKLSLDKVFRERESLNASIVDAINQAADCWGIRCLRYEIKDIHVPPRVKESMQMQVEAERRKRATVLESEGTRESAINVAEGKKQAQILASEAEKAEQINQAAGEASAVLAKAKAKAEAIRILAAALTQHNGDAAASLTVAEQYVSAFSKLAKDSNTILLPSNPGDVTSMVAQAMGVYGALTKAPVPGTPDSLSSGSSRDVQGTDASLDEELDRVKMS
UniProt Q8NFX7: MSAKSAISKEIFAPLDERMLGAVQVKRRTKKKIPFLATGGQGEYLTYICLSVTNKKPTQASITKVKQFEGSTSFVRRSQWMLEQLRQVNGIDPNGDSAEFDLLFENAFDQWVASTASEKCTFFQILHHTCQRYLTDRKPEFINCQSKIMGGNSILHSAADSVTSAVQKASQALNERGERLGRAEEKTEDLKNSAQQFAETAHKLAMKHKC
UniProt O75410: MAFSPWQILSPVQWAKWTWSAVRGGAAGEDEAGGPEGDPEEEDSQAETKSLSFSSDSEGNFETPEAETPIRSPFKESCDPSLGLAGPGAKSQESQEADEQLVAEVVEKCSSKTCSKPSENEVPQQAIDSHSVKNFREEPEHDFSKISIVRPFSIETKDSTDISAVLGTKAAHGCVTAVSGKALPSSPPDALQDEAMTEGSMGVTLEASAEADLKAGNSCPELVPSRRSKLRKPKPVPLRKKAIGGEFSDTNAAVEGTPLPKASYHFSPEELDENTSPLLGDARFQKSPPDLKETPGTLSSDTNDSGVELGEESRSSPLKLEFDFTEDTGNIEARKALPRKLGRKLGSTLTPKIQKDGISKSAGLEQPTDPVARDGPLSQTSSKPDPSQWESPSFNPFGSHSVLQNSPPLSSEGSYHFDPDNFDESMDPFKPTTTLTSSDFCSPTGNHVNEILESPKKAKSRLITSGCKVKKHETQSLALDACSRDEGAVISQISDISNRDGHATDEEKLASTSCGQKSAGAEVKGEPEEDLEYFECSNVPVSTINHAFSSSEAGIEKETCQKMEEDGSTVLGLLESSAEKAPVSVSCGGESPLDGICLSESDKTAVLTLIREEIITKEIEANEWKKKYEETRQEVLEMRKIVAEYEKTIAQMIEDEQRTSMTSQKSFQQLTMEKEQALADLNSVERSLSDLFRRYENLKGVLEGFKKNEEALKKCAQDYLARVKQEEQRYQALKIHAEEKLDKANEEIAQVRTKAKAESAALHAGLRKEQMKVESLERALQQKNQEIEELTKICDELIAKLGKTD
UniProt Q96C24: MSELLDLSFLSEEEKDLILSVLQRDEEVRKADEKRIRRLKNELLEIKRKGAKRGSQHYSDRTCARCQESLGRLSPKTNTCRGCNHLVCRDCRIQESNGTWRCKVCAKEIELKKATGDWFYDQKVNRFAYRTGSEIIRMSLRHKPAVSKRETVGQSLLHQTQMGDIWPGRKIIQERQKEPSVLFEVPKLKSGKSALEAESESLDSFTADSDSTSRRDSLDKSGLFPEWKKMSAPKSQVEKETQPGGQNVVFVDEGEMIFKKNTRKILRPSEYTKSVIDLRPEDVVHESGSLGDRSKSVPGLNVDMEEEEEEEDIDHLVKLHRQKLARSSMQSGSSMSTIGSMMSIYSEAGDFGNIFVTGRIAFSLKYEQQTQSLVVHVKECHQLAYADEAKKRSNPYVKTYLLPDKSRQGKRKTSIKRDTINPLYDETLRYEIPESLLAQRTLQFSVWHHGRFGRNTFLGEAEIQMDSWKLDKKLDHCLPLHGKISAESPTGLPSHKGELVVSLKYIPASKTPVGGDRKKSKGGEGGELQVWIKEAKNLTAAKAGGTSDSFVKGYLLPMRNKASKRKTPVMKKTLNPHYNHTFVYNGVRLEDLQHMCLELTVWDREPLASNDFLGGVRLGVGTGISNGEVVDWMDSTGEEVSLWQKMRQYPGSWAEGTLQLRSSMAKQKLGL
UniProt Q9P246, whole entry, looked up: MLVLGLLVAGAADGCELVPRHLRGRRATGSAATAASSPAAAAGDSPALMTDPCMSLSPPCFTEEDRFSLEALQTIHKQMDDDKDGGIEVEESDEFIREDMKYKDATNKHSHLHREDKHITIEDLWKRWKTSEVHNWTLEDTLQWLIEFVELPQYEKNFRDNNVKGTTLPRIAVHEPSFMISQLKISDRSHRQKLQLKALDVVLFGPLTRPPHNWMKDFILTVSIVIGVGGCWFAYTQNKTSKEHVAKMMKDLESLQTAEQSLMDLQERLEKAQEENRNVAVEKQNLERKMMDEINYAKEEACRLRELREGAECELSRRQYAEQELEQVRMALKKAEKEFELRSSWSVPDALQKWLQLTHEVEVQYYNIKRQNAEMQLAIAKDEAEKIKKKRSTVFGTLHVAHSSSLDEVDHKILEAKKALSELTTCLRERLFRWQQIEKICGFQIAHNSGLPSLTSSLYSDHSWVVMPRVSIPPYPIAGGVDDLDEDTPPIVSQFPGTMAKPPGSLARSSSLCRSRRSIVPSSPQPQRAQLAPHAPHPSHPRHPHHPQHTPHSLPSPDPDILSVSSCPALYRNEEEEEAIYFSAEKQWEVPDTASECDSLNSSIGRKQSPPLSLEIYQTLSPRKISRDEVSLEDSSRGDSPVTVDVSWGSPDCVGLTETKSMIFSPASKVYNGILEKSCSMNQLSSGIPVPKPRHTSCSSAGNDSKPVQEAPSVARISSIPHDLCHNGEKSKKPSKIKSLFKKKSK
UniProt O43426, whole entry, looked up: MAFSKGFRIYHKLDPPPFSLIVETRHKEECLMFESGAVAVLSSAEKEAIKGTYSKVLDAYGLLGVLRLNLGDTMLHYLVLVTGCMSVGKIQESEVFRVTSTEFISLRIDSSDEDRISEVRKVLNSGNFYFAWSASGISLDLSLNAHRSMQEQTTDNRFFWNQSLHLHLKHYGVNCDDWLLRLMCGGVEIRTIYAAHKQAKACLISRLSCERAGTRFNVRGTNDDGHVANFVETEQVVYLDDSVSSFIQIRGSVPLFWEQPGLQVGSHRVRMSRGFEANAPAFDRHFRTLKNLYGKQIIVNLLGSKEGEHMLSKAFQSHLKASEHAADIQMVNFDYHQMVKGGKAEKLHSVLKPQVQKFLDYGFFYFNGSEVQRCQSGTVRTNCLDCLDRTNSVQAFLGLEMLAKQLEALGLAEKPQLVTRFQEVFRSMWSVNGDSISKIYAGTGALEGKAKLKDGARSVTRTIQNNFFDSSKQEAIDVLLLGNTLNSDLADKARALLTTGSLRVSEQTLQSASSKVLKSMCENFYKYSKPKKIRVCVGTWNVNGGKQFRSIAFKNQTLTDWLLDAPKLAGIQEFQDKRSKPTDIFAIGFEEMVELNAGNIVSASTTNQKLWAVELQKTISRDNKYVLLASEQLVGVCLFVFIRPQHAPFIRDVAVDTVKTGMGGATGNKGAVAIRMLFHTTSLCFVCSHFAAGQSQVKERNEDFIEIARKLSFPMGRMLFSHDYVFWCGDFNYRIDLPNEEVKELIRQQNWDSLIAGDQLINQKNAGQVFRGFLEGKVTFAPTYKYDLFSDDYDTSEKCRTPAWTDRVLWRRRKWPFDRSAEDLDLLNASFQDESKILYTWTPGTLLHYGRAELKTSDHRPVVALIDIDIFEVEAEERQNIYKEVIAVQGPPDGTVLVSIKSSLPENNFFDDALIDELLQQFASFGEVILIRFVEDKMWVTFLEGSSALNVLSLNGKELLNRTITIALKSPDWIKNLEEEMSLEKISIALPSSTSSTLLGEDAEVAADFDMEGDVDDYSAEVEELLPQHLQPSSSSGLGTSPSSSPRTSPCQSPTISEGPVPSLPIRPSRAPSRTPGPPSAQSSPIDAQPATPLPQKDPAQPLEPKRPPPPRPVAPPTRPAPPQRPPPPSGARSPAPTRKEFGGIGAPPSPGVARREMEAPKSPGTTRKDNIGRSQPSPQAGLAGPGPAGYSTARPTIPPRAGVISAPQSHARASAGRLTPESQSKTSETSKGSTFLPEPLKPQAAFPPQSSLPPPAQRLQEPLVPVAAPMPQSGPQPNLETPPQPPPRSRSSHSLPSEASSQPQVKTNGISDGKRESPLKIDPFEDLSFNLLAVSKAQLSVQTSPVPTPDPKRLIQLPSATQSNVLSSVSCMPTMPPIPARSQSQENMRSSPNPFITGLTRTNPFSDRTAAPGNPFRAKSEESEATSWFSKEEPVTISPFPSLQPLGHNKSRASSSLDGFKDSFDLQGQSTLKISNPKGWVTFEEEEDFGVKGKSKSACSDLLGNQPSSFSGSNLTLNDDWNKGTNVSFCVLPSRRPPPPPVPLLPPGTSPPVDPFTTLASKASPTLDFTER
UniProt Q9NRP7: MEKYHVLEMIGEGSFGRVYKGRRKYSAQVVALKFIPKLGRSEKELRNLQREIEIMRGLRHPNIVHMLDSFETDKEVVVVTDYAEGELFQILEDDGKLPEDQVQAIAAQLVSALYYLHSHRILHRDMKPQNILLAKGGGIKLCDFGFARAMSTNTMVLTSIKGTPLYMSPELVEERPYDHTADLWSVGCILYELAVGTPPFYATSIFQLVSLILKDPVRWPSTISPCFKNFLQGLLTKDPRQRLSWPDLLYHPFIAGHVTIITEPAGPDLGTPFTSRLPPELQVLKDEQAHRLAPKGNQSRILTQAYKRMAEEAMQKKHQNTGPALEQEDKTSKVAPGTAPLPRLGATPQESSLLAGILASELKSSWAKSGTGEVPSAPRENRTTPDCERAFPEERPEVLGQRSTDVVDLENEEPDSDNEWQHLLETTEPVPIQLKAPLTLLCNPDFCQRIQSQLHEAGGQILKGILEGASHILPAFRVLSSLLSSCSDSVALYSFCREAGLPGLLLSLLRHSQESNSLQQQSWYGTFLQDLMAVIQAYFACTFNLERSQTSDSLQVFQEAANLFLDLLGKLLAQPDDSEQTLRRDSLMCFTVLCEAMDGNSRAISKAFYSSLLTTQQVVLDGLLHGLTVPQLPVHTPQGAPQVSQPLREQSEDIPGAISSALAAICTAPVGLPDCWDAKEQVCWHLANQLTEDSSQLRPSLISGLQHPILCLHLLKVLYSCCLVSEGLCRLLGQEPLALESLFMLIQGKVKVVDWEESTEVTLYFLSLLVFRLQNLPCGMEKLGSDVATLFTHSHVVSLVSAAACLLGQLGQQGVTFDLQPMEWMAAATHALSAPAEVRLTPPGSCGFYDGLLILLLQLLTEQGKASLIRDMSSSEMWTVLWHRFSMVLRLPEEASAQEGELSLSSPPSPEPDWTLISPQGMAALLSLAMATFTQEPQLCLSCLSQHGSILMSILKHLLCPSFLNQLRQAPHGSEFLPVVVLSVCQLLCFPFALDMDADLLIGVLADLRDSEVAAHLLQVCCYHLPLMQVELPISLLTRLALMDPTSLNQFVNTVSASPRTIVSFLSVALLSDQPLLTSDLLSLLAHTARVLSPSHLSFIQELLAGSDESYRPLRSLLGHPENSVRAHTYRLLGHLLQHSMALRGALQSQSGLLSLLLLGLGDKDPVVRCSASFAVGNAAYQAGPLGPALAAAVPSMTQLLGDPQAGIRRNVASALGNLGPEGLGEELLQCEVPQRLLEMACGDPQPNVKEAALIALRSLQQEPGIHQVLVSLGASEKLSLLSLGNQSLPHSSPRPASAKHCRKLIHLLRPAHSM

Legend:
Assay in all cases: log2 fold change, soluble protein after heating vs DMSO (PISA); higher = thermal stabilisation; K562 lysate, 10 uM; active = over 0.2 and 3.5 SD of the protein, either way, in both replicates (recomputed)
[1] = compound: CN1CC[C@H](c2c(O)cc(O)c3c(=O)cc(-c4ccccc4Cl)oc23)[C@H](O)C1 [alvocidib]
Outline: (§1)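 Log-two fold change in thermal stability relative to solvent controls is reported from duplicates. For each sample, crude K562 extract from dounce-homogenised pellets in PBS pH 7.4 with 1 mM MgCl2, at 1 mg/mL protein, was treated with 10 μM compound for 30 min. Aliquots heated for 3 min across 48°C-58°C were pooled, brought to 0.5% NP-40 at 4°C and cleared at 21,000xg for 90 min. The supernatant was quantified by TMTpro 16plex LC-MS/MS with channel sums equalised.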

[2] = compound: CN1CCc2c(c3ccccc3n2Cc2ccc(C(=O)NO)cc2)C1 [Tubastatin A]
Outline: as §1

[3] = compound: CNC(=O)C1=CC=CC=C1NC2=NC(=NC=C2Cl)NC3=C(C=C(C=C3)N4CCOCC4)OC
Outline: as §1

[4] = compound: CNC(=O)c1ccc(Nc2ncc(C(F)(F)F)c(NCc3nccnc3N(C)S(C)(=O)=O)n2)cc1 [defactinib]
Outline: as §1

[5] = compound: CNc1nc(-c2ccc3c(N)n[nH]c3c2)cc(N2C[C@@H](C(=O)NC3CCCCC3)CC[C@H]2C)n1
Outline: as §1

[6] = compound: COC(=O)N[C@@H](C)CNc1nccc(-c2cn(C(C)C)nc2-c2cc(Cl)cc(NS(C)(=O)=O)c2F)n1 [encorafenib]
Outline: as §1

[7] = compound: COC(=O)[C@H](CCSC)NC(=O)C1=C(C=C(C=C1)NC[C@H](CS)N)C2=CC=CC=C2
Outline: as §1

[8] = compound: COc1cc(Nc2ncc3c(n2)-c2ccc(Cl)cc2C(c2c(F)cccc2OC)=NC3)ccc1C(=O)O [alisertib]
Outline: as §1

[9] = compound: COc1cc2nc(-c3cc(F)ccc3O)nc(N[C@@H]3CNC[C@H]3C(C)(C)O)c2cc1OC
Outline: as §1

[10] = compound: COc1cc2ncnc(Nc3ccc(F)c(Cl)c3)c2cc1OCCCN1CCOCC1 [gefitinib]
Outline: as §1

[11] = compound: CS(=O)(=O)CCNCc1ccc(-c2ccc3ncnc(Nc4ccc(OCc5cccc(F)c5)c(Cl)c4)c3c2)o1 [lapatinib]
Outline: as §1

[12] = compound: CS(=O)(=O)N1CCN(Cc2cc3nc(-c4cccc5[nH]ncc45)nc(N4CCOCC4)c3s2)CC1 [pictilisib]
Outline: as §1

[13] = compound: C[C@@H](Oc1cc(-c2cnn(C3CCNCC3)c2)cnc1N)c1c(Cl)ccc(F)c1Cl [crizotinib]
Outline: as §1

[14] = compound: C[C@H](C1=CC=C(C=C1)C(=O)NC2=C3C=CNC3=NC=C2)N
Outline: as §1

[15] = compound: C[C@H](Nc1ncnc2nc[nH]c12)c1cc2cccc(Cl)c2c(=O)n1-c1ccccc1 [duvelisib]
Outline: as §1

[16] = compound: Cc1cc(Nc2cc(CN3CCOCC3)c3nc(C)c(Cc4ccc(Cl)cc4F)n3n2)n[nH]1 [gandotinib]
Outline: as §1

[17] = compound: Cc1cc(Nc2cc(N3CCN(C)CC3)nc(Sc3ccc(NC(=O)C4CC4)cc3)n2)n[nH]1 [tozasertib]
Outline: as §1

[18] = compound: Cc1ccc(-n2nc(C(C)(C)C)cc2NC(=O)Nc2ccc(OCCN3CCOCC3)c3ccccc23)cc1 [doramapimod]
Outline: as §1

[19] = compound: Cc1ccc(NC(=O)c2ccc(CN3CC[C@H](N(C)C)C3)c(C(F)(F)F)c2)cc1Nc1nccc(-c2cncnc2)n1 [bafetinib]
Outline: as §1

[20] = compound: Cc1cccc(CC(=O)N2CCc3c2ccc(-c2cn(C)c4ncnc(N)c24)c3F)n1
Outline: as §1

Target | log2 fold change [1] | log2 fold change [2] | log2 fold change [3] | log2 fold change [4] | log2 fold change [5] | log2 fold change [6] | log2 fold change [7] | log2 fold change [8] | log2 fold change [9] | log2 fold change [10] | log2 fold change [11] | log2 fold change [12] | log2 fold change [13] | log2 fold change [14] | log2 fold change [15] | log2 fold change [16] | log2 fold change [17] | log2 fold change [18] | log2 fold change [19] | log2 fold change [20]
STUB1 (UniProt Q9UNE7) | inactive: -0.012 | inactive: -0.193 | inactive: 0.003 | inactive: -0.029 | inactive: 0.026 | inactive: -0.025 | inactive: 0.135 | inactive: 0.003 | inactive: 0.007 | inactive: -0.003 | inactive: -0.01 | inactive: -0.012 | inactive: -0.035 | inactive: 0.004 | inactive: -0.01 | inactive: -0.073 | inactive: -0.006 | inactive: 0.019 | inactive: -0.054 | inactive: 0.05
STYX (UniProt Q8WUJ0) | inactive: 0.017 | inactive: -0.005 | inactive: 0.08 | – | inactive: 0.004 | inactive: -0.043 | inactive: -0.051 | inactive: -0.048 | inactive: 0.051 | inactive: -0.02 | inactive: -0.019 | inactive: -0.073 | inactive: -0.039 | inactive: 0.052 | inactive: 0.074 | inactive: -0.099 | inactive: -0.031 | inactive: 0.078 | inactive: 0.078 | inactive: -0.093
SUPT3H (UniProt O75486) | inactive: -0.088 | inactive: -0.059 | inactive: 0.064 | – | – | inactive: -0.303 | inactive: 0.254 | – | inactive: 0.008 | – | inactive: 0.097 | – | inactive: 0.047 | inactive: 0.092 | – | inactive: -0.139 | inactive: 0.07 | inactive: -0.094 | – | inactive: -0.037
SUMF1 (UniProt Q8NBK3) | inactive: -0.049 | inactive: -0.005 | inactive: 0.075 | inactive: 0.08 | inactive: 0.035 | inactive: 0.101 | inactive: -0.075 | inactive: 0.096 | inactive: -0.025 | inactive: 0.113 | inactive: -0.03 | inactive: 0.012 | inactive: -0.003 | inactive: -0.059 | inactive: 0.01 | inactive: 0.022 | inactive: 0.097 | inactive: -0.024 | inactive: 0.011 | inactive: -0.046
STOML2 (UniProt Q9UJZ1) | inactive: -0.017 | inactive: 0.095 | inactive: -0.009 | inactive: 0.017 | inactive: 0.022 | inactive: -0.007 | inactive: -0.055 | inactive: -0.004 | inactive: 0.052 | inactive: 0.08 | inactive: 0.013 | inactive: -0.021 | inactive: 0.028 | inactive: 0.089 | inactive: 0.035 | inactive: 0.015 | inactive: 0.012 | inactive: -0.032 | inactive: 0.033 | inactive: -0.023
TAF5L (UniProt O75529) | inactive: -0.113 | inactive: -0.026 | inactive: 0.012 | inactive: 0.282 | inactive: -0.025 | inactive: 0.072 | inactive: 0.015 | inactive: -0.083 | – | inactive: 0.03 | – | inactive: -0.097 | inactive: 0.02 | inactive: 0.058 | inactive: 0.041 | inactive: -0.029 | inactive: -0.029 | inactive: -0.044 | inactive: -0.07 | inactive: 0.053
STXBP6 (UniProt Q8NFX7) | inactive: -0.07 | inactive: -0.281 | inactive: -0.358 | – | – | – | – | inactive: 0.119 | – | inactive: -0.04 | – | inactive: -0.154 | inactive: 0.067 | inactive: 0.197 | – | inactive: 0.126 | – | inactive: 0.074 | inactive: -0.098 | inactive: 0.164
SULT1A3 isoform 3 (UniProt P0DMM9) | inactive: 0.086 | inactive: -0.068 | inactive: 0.064 | – | inactive: -0.225 | inactive: 0.019 | inactive: -0.005 | inactive: -0.027 | – | inactive: 0.027 | – | inactive: -0.033 | inactive: -0.095 | inactive: 0.064 | inactive: 0.072 | inactive: -0.088 | inactive: 0.051 | inactive: 0.001 | inactive: -0.04 | inactive: -0.085
SYNGR2 (UniProt O43760) | inactive: -0.019 | inactive: 0.046 | inactive: 0.003 | inactive: 0.076 | inactive: 0.02 | inactive: 0.075 | inactive: -0.034 | inactive: 0.04 | inactive: -0.065 | inactive: -0.032 | inactive: 0.02 | inactive: 0.056 | inactive: -0.016 | inactive: -0.024 | inactive: -0.002 | inactive: 0.037 | inactive: 0.003 | inactive: 0.07 | inactive: -0.091 | inactive: 0.07
TACC1 (UniProt O75410) | inactive: 0.005 | inactive: -0.027 | inactive: 0.026 | inactive: 0.062 | inactive: 0.067 | inactive: 0.106 | inactive: -0.114 | inactive: 0.028 | inactive: 0.001 | inactive: 0.056 | inactive: 0.008 | inactive: 0.016 | inactive: -0.002 | inactive: -0.001 | inactive: -0.032 | inactive: -0.025 | inactive: 0.009 | inactive: -0.013 | inactive: 0.075 | inactive: 0.111
SYTL4 (UniProt Q96C24) | inactive: 0.044 | inactive: -0.023 | inactive: 0.024 | inactive: 0.03 | inactive: 0.018 | inactive: 0 | inactive: 0.017 | inactive: -0.071 | inactive: 0.17 | inactive: -0.009 | inactive: -0.043 | inactive: 0.125 | inactive: -0.016 | inactive: -0.007 | inactive: -0.042 | inactive: -0.068 | inactive: 0.052 | inactive: 0.051 | inactive: -0.082 | inactive: 0.036
STXBP2 (UniProt Q15833) | inactive: 0.021 | inactive: -0.045 | inactive: 0.015 | inactive: 0.011 | inactive: 0.004 | inactive: -0.003 | inactive: 0.194 | inactive: 0.011 | inactive: 0 | inactive: 0.002 | inactive: -0.024 | inactive: -0.005 | inactive: -0.026 | inactive: 0.027 | inactive: -0.009 | inactive: -0.078 | inactive: 0.007 | inactive: 0.013 | inactive: -0.028 | inactive: 0.013
SUSD3 (UniProt Q96L08) | inactive: -0.066 | inactive: 0.16 | inactive: -0.17 | – | – | – | – | – | inactive: -0.111 | – | inactive: 0.092 | – | – | inactive: -0.046 | – | inactive: 0.007 | – | – | – | inactive: 0.139
STIM2 isoform 2 (UniProt Q9P246) | inactive: 0.005 | inactive: -0.051 | inactive: -0.039 | – | inactive: -0.027 | inactive: 0 | inactive: -0.001 | inactive: -0.108 | inactive: -0.137 | inactive: 0.19 | inactive: -0.103 | – | inactive: -0.015 | inactive: 0.016 | inactive: -0.114 | inactive: -0.093 | inactive: -0.106 | inactive: -0.084 | – | inactive: 0.047
TACC3 (UniProt Q9Y6A5) | inactive: -0.019 | inactive: 0.029 | inactive: 0.007 | inactive: 0.019 | inactive: 0.047 | inactive: -0.001 | inactive: -0.054 | inactive: 0.011 | inactive: 0.005 | inactive: 0.02 | inactive: 0.001 | inactive: 0.007 | inactive: 0.032 | inactive: -0.019 | inactive: 0.021 | inactive: 0.034 | inactive: -0.007 | inactive: -0.056 | inactive: 0.007 | inactive: 0
SYNJ1 (UniProt O43426) | inactive: -0.056 | inactive: -0.028 | inactive: -0.006 | inactive: 0.034 | inactive: 0.016 | inactive: 0.041 | inactive: -0.004 | inactive: 0.028 | inactive: -0.019 | inactive: 0.071 | inactive: 0.029 | inactive: -0.054 | inactive: -0.02 | inactive: -0.065 | inactive: -0.003 | inactive: 0.028 | inactive: 0.049 | inactive: 0.004 | inactive: -0.051 | inactive: -0.041
STN1 (UniProt Q9H668) | inactive: -0.078 | inactive: -0.032 | inactive: 0.173 | inactive: 0.016 | – | inactive: 0.024 | inactive: -0.149 | inactive: -0.026 | active: -0.562 | inactive: 0.053 | inactive: 0.128 | inactive: -0.201 | inactive: -0.068 | inactive: -0.235 | – | inactive: -0.212 | inactive: -0.059 | inactive: -0.101 | inactive: -0.176 | inactive: -0.028
STK36 (UniProt Q9NRP7) | inactive: -0.33 | inactive: 0.331 | inactive: -0.048 | inactive: -0.263 | inactive: 0.528 | inactive: -0.027 | inactive: 0.042 | inactive: 0.081 | inactive: 0.199 | inactive: -0.093 | inactive: -0.213 | inactive: -0.007 | inactive: -0.833 | inactive: -0.551 | inactive: 0.191 | inactive: 0.284 | inactive: 0 | inactive: 0.202 | inactive: -0.322 | inactive: 0.398

Only log2 fold change [5], for some of the entries so far:

| Target | log2 fold change [5] |
| --- | --- |
| SYTL4 (UniProt Q96C24) | inactive: 0.018 |
| STXBP2 (UniProt Q15833) | inactive: 0.004 |
